In the supplement of paper PMC4604168 (melanoma cell lines):
This is one part of the list. Repeats are few or missing, and single values can be far off.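 The apoptosis fraction was the count of cleaved-PARP antibody-stained nuclei relative to all DNA-stained nuclei, imaged in 1,536-well plates. Screening doses were set so most cells survived, and baseline and induced cleaved-PARP levels vary greatly across cell lines.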

How the values were obtained:
Assay in all cases: cleaved PARP positive nuclei fraction relative to DMSO control; melanoma cells; higher = more apoptosis
Settings in all cases: library dose: low library concentration; 72 h
501Mel = system: 501Mel
A101D = system: A101D
A2058 = system: A2058
C32 = system: C32
CBRC008 = system: CBRC008 (line from a melanoma biopsy)
CBRC014 = system: CBRC014 (line from a melanoma biopsy)
CBRC016 = system: CBRC016 (line from a melanoma biopsy)
CBRC017 = system: CBRC017 (line from a melanoma biopsy)
COLO792 = system: COLO792
COLO800 = system: COLO800
COLO829 = system: COLO829
G361 = system: G361
IPC-298 = system: IPC-298
IST-MEL1 = system: IST-MEL1
LB2518-MEL = system: LB2518-MEL
LOXIMVI = system: LOXIMVI
A375 = system: A375
CBRC013 = system: CBRC013 (line from a melanoma biopsy)
MEL-HO = system: MEL-HO
CBRC034 = system: CBRC034 (line from a melanoma biopsy)

Compound	cleaved PARP positive nuclei fraction (501Mel)	cleaved PARP positive nuclei fraction (A101D)	cleaved PARP positive nuclei fraction (A2058)	cleaved PARP positive nuclei fraction (C32)	cleaved PARP positive nuclei fraction (CBRC008)	cleaved PARP positive nuclei fraction (CBRC014)	cleaved PARP positive nuclei fraction (CBRC016)	cleaved PARP positive nuclei fraction (CBRC017)	cleaved PARP positive nuclei fraction (COLO792)	cleaved PARP positive nuclei fraction (COLO800)	cleaved PARP positive nuclei fraction (COLO829)	cleaved PARP positive nuclei fraction (G361)	cleaved PARP positive nuclei fraction (IPC-298)	cleaved PARP positive nuclei fraction (IST-MEL1)	cleaved PARP positive nuclei fraction (LB2518-MEL)	cleaved PARP positive nuclei fraction (LOXIMVI)	cleaved PARP positive nuclei fraction (A375)	cleaved PARP positive nuclei fraction (CBRC013)	cleaved PARP positive nuclei fraction (MEL-HO)	cleaved PARP positive nuclei fraction (CBRC034)
OCc1c[nH]c2ccccc12 [Indole-3-carbinol] + O=C1NC(=O)/C(=C/c2ccc(-c3ccc(F)cc3O)o2)S1 [AS252424] (first compound 0.8 µM, partner dose 1 µM)	78%	24%	137%	81.6%	98.3%	91.4%	103%	73.2%	56.3%	76.5%	66%	172%	77.6%	144%	38%	140%	–	–	–	–
Clc1ccc(Nc2nnc(Cc3ccncc3)c3ccccc23)cc1 [vatalanib] + COc1ccc(COc2ccc(Cc3cnc(N)nc3N)cc2OC)cc1 [GW2580] (first compound 2 µM, partner dose 1 µM)	354%	190%	35.4%	210%	34.4%	124%	77.1%	105%	181%	140%	224%	106%	38.6%	120%	281%	87.7%	–	–	–	–
CC(=O)c1c(C)c2cnc(Nc3ccc(N4CCNCC4)cn3)nc2n(C2CCCC2)c1=O [palbociclib] + Oc1nc(-c2ccc(C(F)(F)F)cc2)nc2c1CSCC2 [XAV939] (first compound 0.04 µM, partner dose 2 µM)	185%	41.3%	40.7%	100%	230%	115%	103%	90.2%	159%	77.4%	52.6%	47.9%	53.4%	180%	98.6%	77%	–	–	–	–
CC(=O)c1c(C)c2cnc(Nc3ccc(N4CCNCC4)cn3)nc2n(C2CCCC2)c1=O [palbociclib] + CCN(CC)CCCCNc1ncc2cc(-c3cc(OC)cc(OC)c3)c(NC(=O)NC(C)(C)C)nc2n1 [PD173074] (first compound 0.04 µM, partner dose 0.1 µM)	111%	25%	78.1%	202%	153%	110%	152%	210%	302%	100%	22.8%	55.4%	330%	40.5%	45.5%	99.9%	–	–	–	–
Clc1ccc(Nc2nnc(Cc3ccncc3)c3ccccc23)cc1 [vatalanib] + Oc1cc(-c2nc(-c3ccccc3)[nH]c2-c2ccncc2)ccc1Cl [L779450] (first compound 2 µM, partner dose 0.2 µM)	71.2%	78.8%	81%	76.8%	40.4%	126%	67%	89.2%	97.4%	61.5%	94.5%	142%	203%	31.3%	247%	71.1%	–	–	–	–
OCc1c[nH]c2ccccc12 [Indole-3-carbinol] + O=C(Nc1ccccc1)c1cc([N+](=O)[O-])ccc1Cl [GW9662] (first compound 0.8 µM, partner dose 2 µM)	291%	49.5%	152%	83.3%	83.7%	88.2%	121%	86%	141%	90.4%	113%	114%	104%	102%	62.4%	290%	–	–	–	–
Clc1ccc(Nc2nnc(Cc3ccncc3)c3ccccc23)cc1 [vatalanib] + O=c1cc(-c2cccc3c2Sc2ccccc2S3)oc(N2CCOCC2)c1 [KU55933] (first compound 2 µM, partner dose 1 µM)	80.7%	51.4%	241%	141%	139%	107%	103%	125%	246%	37.4%	123%	72.5%	117%	139%	62.4%	60.1%	–	–	–	–
Clc1ccc(Nc2nnc(Cc3ccncc3)c3ccccc23)cc1 [vatalanib] + COc1cc(N2CCC(N3CCN(C)CC3)CC2)ccc1Nc1ncc(Cl)c(Nc2ccccc2S(=O)(=O)C(C)C)n1 [NVP-TAE684] (first compound 2 µM, partner dose 0.08 µM)	91.6%	322%	287%	97%	160%	220%	104%	90.8%	120%	40%	139%	66.9%	55.7%	179%	72%	282%	–	–	–	–
Clc1ccc(Nc2nnc(Cc3ccncc3)c3ccccc23)cc1 [vatalanib] + CCN(CC)CCCCNc1ncc2cc(-c3cc(OC)cc(OC)c3)c(NC(=O)NC(C)(C)C)nc2n1 [PD173074] (first compound 2 µM, partner dose 0.1 µM)	104%	306%	144%	45.1%	130%	126%	99.2%	47.7%	176%	143%	115%	95.4%	27.7%	219%	166%	70.6%	–	–	–	–
C=CCNC1=C2C[C@@H](C)C[C@H](OC)[C@H](O)[C@@H](C)/C=C(\C)[C@H](OC(N)=O)[C@@H](OC)/C=C\C=C(/C)C(=O)NC(=CC1=O)C2=O [Tanespimycin] + COc1ccc2c(c1)CCC1C2CCC2(C)C(NCCCCCCN3C(=O)C=CC3=O)CCC12 [U73122] (first compound 0.002 µM, partner dose 0.4 µM)	102%	35.8%	66.4%	36.4%	66.4%	97.7%	44.8%	84.9%	68.4%	117%	117%	93%	59.5%	85.2%	70%	69.2%	–	–	–	–
Clc1ccc(Nc2nnc(Cc3ccncc3)c3ccccc23)cc1 [vatalanib] + O=C1NC(=O)/C(=C/c2ccc(-c3ccc(F)cc3O)o2)S1 [AS252424] (first compound 2 µM, partner dose 1 µM)	56.9%	46.2%	57.5%	101%	214%	132%	101%	89%	79.9%	80.6%	55.4%	141%	109%	60.5%	83.4%	33.9%	–	–	–	–
COCC[n+]1c2c(n(Cc3cnccn3)c1C)C(=O)c1ccccc1C2=O + CN(C)S(=O)(=O)c1ccc2c(c1)/C(=C/c1cc3c([nH]1)CCCC3)C(=O)N2 [SU6656] (first compound 0.0004 µM, partner dose 0.4 µM)	–	99.3%	261%	231%	993%	111%	32.8%	219%	124%	25.8%	51.9%	70.2%	99.9%	87.4%	–	75.3%	128%	89.3%	128%	–
C[C@]1(c2nc3c(C(N)=O)cccc3[nH]2)CCCN1 [Veliparib] + Cc1cc(N2CCOCC2)cc2[nH]c(-c3c(NC[C@@H](O)c4cccc(Cl)c4)cc[nH]c3=O)nc12 [BMS536924] (first compound 1.4 µM, partner dose 0.2 µM)	–	45.3%	151%	95.5%	202%	98.5%	85.3%	91.7%	57.2%	120%	204%	99.8%	194%	82.1%	–	139%	111%	124%	140%	–
C#Cc1cccc(Nc2ncnc3cc(OCCOC)c(OCCOC)cc23)c1 [erlotinib] + OCCn1cc(-c2cnc3nnn(Cc4ccc5ncccc5c4)c3n2)cn1 [PF04217903] (first compound 0.8 µM, partner dose 1 µM)	–	82.6%	115%	166%	68.2%	96.5%	49.6%	109%	247%	62.9%	89.2%	80.4%	96%	97.8%	–	44.4%	260%	125%	192%	–
NC(=O)Nc1cc(-c2cccc(F)c2)sc1C(=O)N[C@H]1CCCNC1 + O=C(Nc1cccc(Cl)c1)Nc1ncc(CCNc2ncnc3ccsc23)s1 [SNS314] (first compound 0.02 µM, partner dose 0.0008 µM)	–	89.8%	140%	307%	65.7%	89.6%	194%	213%	184%	90.5%	95%	84.4%	249%	58.1%	–	276%	452%	107%	65.3%	–
C=CCNC1=C2C[C@@H](C)C[C@H](OC)[C@H](O)[C@@H](C)/C=C(\C)[C@H](OC(N)=O)[C@@H](OC)/C=C\C=C(/C)C(=O)NC(=CC1=O)C2=O [Tanespimycin] + O=C(Nc1cccc(Cl)c1)Nc1ncc(CCNc2ncnc3ccsc23)s1 [SNS314] (first compound 0.002 µM, partner dose 0.0008 µM)	–	164%	38.8%	186%	234%	80.4%	50.7%	107%	155%	153%	133%	107%	90.2%	48.3%	–	527%	120%	154%	398%	–
CC(C)(C)c1cnc(CSc2cnc(NC(=O)C3CCNCC3)s2)o1 + O=S(=O)(c1ccccc1)N(CC(F)(F)F)c1ccc(C(O)(C(F)(F)F)C(F)(F)F)cc1 [T0901317] (first compound 0.01 µM, partner dose 1.4 µM)	–	59.6%	219%	65.8%	–	122%	92%	79.1%	116%	157%	58.6%	81.8%	89%	92.6%	–	61.3%	159%	69%	–	166%
C=CCn1c(=O)c2cnc(Nc3ccc(N4CCN(C)CC4)cc3)nc2n1-c1cccc(C(C)(C)O)n1 + CN(NC(=O)CC(=O)NN(C)C(=S)c1ccccc1)C(=S)c1ccccc1 [STA4783] (first compound 0.02 µM, partner dose 0.006 µM)	–	132%	276%	711%	1570%	801%	71.5%	152%	124%	180%	118%	86.3%	141%	121%	–	87.3%	10200%	140%	125%	–
CO[C@@H]1[C@H](N(C)C(=O)c2ccccc2)C[C@H]2O[C@]1(C)n1c3ccccc3c3c4c(c5c6ccccc6n2c5c31)C(=O)NC4 [Midostaurin] + c1cc(-c2cnn3cc(-c4ccc(OCCN5CCCCC5)cc4)cnc23)ccn1 [Dorsomorphin] (first compound 0.08 µM, partner dose 0.4 µM)	–	83.8%	70.3%	67.2%	–	94.5%	123%	93.2%	97.4%	189%	111%	37.4%	116%	160%	–	89.1%	67.8%	327%	–	83.8%

Reprinted at random: 2 entries already listed.
Compound	cleaved PARP positive nuclei fraction (501Mel)	cleaved PARP positive nuclei fraction (A101D)	cleaved PARP positive nuclei fraction (A2058)	cleaved PARP positive nuclei fraction (C32)	cleaved PARP positive nuclei fraction (CBRC008)	cleaved PARP positive nuclei fraction (CBRC014)	cleaved PARP positive nuclei fraction (CBRC016)	cleaved PARP positive nuclei fraction (CBRC017)	cleaved PARP positive nuclei fraction (COLO792)	cleaved PARP positive nuclei fraction (COLO800)	cleaved PARP positive nuclei fraction (COLO829)	cleaved PARP positive nuclei fraction (G361)	cleaved PARP positive nuclei fraction (IPC-298)	cleaved PARP positive nuclei fraction (IST-MEL1)	cleaved PARP positive nuclei fraction (LB2518-MEL)	cleaved PARP positive nuclei fraction (LOXIMVI)	cleaved PARP positive nuclei fraction (A375)	cleaved PARP positive nuclei fraction (CBRC013)	cleaved PARP positive nuclei fraction (MEL-HO)	cleaved PARP positive nuclei fraction (CBRC034)
Clc1ccc(Nc2nnc(Cc3ccncc3)c3ccccc23)cc1 [vatalanib] + COc1cc(N2CCC(N3CCN(C)CC3)CC2)ccc1Nc1ncc(Cl)c(Nc2ccccc2S(=O)(=O)C(C)C)n1 [NVP-TAE684] (first compound 2 µM, partner dose 0.08 µM)	91.6%	322%	287%	97%	160%	220%	104%	90.8%	120%	40%	139%	66.9%	55.7%	179%	72%	282%	–	–	–	–
C=CCNC1=C2C[C@@H](C)C[C@H](OC)[C@H](O)[C@@H](C)/C=C(\C)[C@H](OC(N)=O)[C@@H](OC)/C=C\C=C(/C)C(=O)NC(=CC1=O)C2=O [Tanespimycin] + O=C(Nc1cccc(Cl)c1)Nc1ncc(CCNc2ncnc3ccsc23)s1 [SNS314] (first compound 0.002 µM, partner dose 0.0008 µM)	–	164%	38.8%	186%	234%	80.4%	50.7%	107%	155%	153%	133%	107%	90.2%	48.3%	–	527%	120%	154%	398%	–
